## Primary screen of a compound library

A: 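Whole-parasite assay of Trypanosoma brucei over 72 hours; the read-out is not stated. Compounds at 30 µM. Higher reads as stronger inhibition (inferred: compounds with an IC50 in retests scored well above the rest). Values scatter widely below zero; nearly all retest evidence comes from the higher of the two concentrations used. Of about 64,000 compounds tested this way, about 940 (1.5%) reached 50% or more in at least one test.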
B: 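Cell assay of Leishmania donovani living inside macrophages; the read-out is not stated. Compounds at 30 µM. Higher reads as stronger inhibition (inferred: compounds with an IC50 in retests scored well above the rest). Of about 69,000 compounds tested this way, about 1,000 (1.5%) reached 50% or more in at least one test.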

Results are given as percent effect. The record does not define 0% and 100%; most values in the screen are far below 50% and negative numbers occur (in some assays of this library far below -100). Compounds were drawn at random from those tested, without regard to their results. Two or more numbers in one place are separate tests of the same structure; such repeats can differ widely.

For CCC[C@H]1CN(S(C)(=O)=O)C[C@@H]1NC(=O)Cc1ccc(F)cc1C the result was A: -14.39%; B: 40.03%.
For [H][C@@]12CCN(C3CCOCC3)C[C@@]1([H])O[C@@H](C(=O)N(C)C)C2 the result was A: -19.21%; B: 14.39%.
For O=C(O)c1ccccc1-c1ccc(CN2CCC(CO)C2)cn1 (configuration not stated) the result was A: -24.16%; B: -18.02%.
For Cc1noc(C)c1CN1C[C@@H](C(=O)O)[C@H](C(C)C)C1 the result was A: -35.4%; B: 6.06%.
For O=C1COc2ccc(C(=O)NS(=O)(=O)c3ccccc3Cl)cc2N1 the result was A: 6.522%; B: 1.24%.
For CCNc1ncc(C(=O)NC(CCN(C)C)c2ccccc2)cn1 (configuration not stated) the result was A: -98.59%; B: -21.79%.
For COC[C@H]1CCC[C@H]1Nc1ncnc2c1CCNCC2 the result was A: -20.79%; B: 7.02%.
For CCCS(=O)(=O)c1ccc(N2CCN(Cc3ccccc3)CC2)nn1 the result was A: 3.864%; B: 16.08% & 7.105%.
For Cn1c(SCc2noc(-c3ccsc3)n2)nnc1C1CCS(=O)(=O)C1 (configuration not stated) the result was A: -9.124%; B: 6.972%.
For [H][C@]12CC[C@]([H])(CN(Cc3ccccn3)C1)N(Cc1cc(C(C)(C)C)[nH]n1)C2 the result was A: 42.79%; B: 4.97%.
For O=C(c1ncoc1C1CC1)N1CCN(CCOc2ccccc2)CC1 the result was A: -5.74%; B: -0.07744%.
For CSCc1cc(F)ccc1CNCc1cccnc1 the result was A: -12.41%; B: 11.94%.
For Cc1cc(CN2CCN(C(=O)NC(C)c3ccc(C)o3)CC2)on1 (configuration not stated) the result was A: 5.071%; B: 28.16%.
For C=C(C)COc1ccccc1C(=O)NCCc1nncn1C the result was A: -30.4%; B: -3.414%.
For Cc1cccc2c1OCCC2NCc1c(C)nn(C)c1N(C)C (configuration not stated) the result was A: -77.62%; B: 1.081%.
For COCCC(=O)N1CCCC1c1nccnc1Nc1ncccn1 (configuration not stated) the result was A: -11.07%; B: -13% & -6.664%.
For N#Cc1cccc(CS(=O)(=O)NC(Cc2ccccc2)C(N)=O)c1 (configuration not stated) the result was A: -12.61%; B: 10.12%.
For COc1cc2c(cc1CN1CCn3c(CO)nnc3C1)CCC2.O=C(O)CC(O)(CC(=O)O)C(=O)O the result was A: -66.2%; B: 3.975% & -6.624%.
For c1cnnc(N2CCCC2CNCc2cccs2)c1 (configuration not stated) the result was B: 40.61%.
For OC(CNCCn1cccn1)c1cccc(F)c1 (configuration not stated) the result was A: 3.469%; B: 5.995%.
For COc1ccc(C(=O)N(C)Cc2nnc3ccccn23)cc1 the result was B: 24.74%.
For CN(C)CCN1CCOCC2(CCCN(C(=O)c3cccn3C)C2)C1.O=C(O)C(F)(F)F.O=C(O)C(F)(F)F (configuration not stated) the result was A: -14.59%; B: -5.161%.
For Cc1ccccc1CC(=O)N1C[C@@H](O)[C@H](N2CCN(C)CC2)C1 the result was B: -16.1%.
For O=C(CN1CCC(c2ccnn2CCO)CC1)NC1CCCC1 the result was B: 10.21%.
For O=C(O)C(F)(F)F.[H][C@]12CCN(c3cncnc3)C(=O)[C@]1([H])CN(Cc1ccccn1)C2 the result was A: -16.76%; B: 21.05%.
For Cc1n[nH]c(=O)c(C(=O)N2CCN(CCc3cccs3)CC2)c1C the result was A: 4.261%; B: 1.697%.
For Clc1ccc(CN2CCc3c(ncn3C3CC3)C2)c2ncccc12 the result was A: 7.599%; B: 15.14%.

Once more, the final 3:

With O=C(O)C(F)(F)F.[H][C@]12CCN(c3cncnc3)C(=O)[C@]1([H])CN(Cc1ccccn1)C2 the screen gave A: -16.76%; B: 21.05%.
With Cc1n[nH]c(=O)c(C(=O)N2CCN(CCc3cccs3)CC2)c1C the screen gave A: 4.261%; B: 1.697%.
With Clc1ccc(CN2CCc3c(ncn3C3CC3)C2)c2ncccc12 the screen gave A: 7.599%; B: 15.14%.

The values are deposited in ChEMBL (CHEMBL3988442, “University of Dundee, Small-Polar-MMV Screening Library” (2021)).